Measured values: PubChem BioAssay AID588342 (National Center for Advancing Translational Sciences (NCATS), 2011)
About 25,000 (6.9%) of roughly 360,000 compounds were called active. The source calls these results inconclusive, neither active nor inactive. The call rests on the fitted dose curve; in most records, active means well fitted inhibition curve with a large enough effect; inconclusive means small, poorly fitted or top-dose-only effect; inactive means flat fitted curve, though single readings scatter.

The chains behind the UniProt entries cited, without tags or fusion partners.
UniProt P08659, whole entry: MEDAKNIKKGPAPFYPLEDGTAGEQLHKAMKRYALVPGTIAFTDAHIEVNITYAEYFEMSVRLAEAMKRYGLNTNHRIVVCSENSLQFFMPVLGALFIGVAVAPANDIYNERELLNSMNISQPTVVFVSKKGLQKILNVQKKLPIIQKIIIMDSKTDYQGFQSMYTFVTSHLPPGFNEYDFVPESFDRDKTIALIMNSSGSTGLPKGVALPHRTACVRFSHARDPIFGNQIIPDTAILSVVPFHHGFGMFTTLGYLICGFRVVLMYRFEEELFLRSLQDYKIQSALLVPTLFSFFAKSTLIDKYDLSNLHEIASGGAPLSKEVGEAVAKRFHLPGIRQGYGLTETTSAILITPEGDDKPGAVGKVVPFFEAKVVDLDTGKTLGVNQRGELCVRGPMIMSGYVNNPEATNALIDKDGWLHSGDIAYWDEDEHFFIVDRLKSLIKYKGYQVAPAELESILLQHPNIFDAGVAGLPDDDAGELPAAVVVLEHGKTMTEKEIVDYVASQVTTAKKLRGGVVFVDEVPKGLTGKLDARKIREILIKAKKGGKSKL

What follows are molecules tested against Luciferin 4-monooxygenase (Photinus pyralis) (UniProt P08659) (assay: qHTS profiling assay for firefly luciferase inhibitor/activator using purifed enzyme and Km concentrations of substrates (counterscreen for miR-21 project)). Details: purified FLuc, luminescence inhibition.
Further: nearly all actives have a fitted effect of over 55% in size.
Potency means the concentration at half of the fitted maximal effect.

| SMILES | Potency |
| --- | --- |
| Cc1nc2ccc3ccccc3c2o1.O=[N+]([O-])c1cc([N+](=O)[O-])c(O)c([N+](=O)[O-])c1 | inconclusive: 26.9 µM |
| O=[N+]([O-])c1cc([N+](=O)[O-])c(-n2nnc3ccccc32)c([N+](=O)[O-])c1 | inconclusive: 33.8 µM |
| Cc1nc2ccc3ccccc3c2s1.O=[N+]([O-])c1cc([N+](=O)[O-])c(O)c([N+](=O)[O-])c1 | inconclusive: 21.3 µM |
| O=[N+]([O-])c1cc([N+](=O)[O-])c(Nc2nnnn2CCO)c([N+](=O)[O-])c1 | inconclusive: 37.9 µM |
| CC1=C2N=C(C=C3N=C(C(C)=C4[N-][C@@](C)([C@@H]5N=C1[C@](C)(CCC(=O)NC[C@@H](C)OP(=O)([O-])O[C@H]1[C@@H](O)[C@@H](n6cnc7cc(C)c(C)cc76)O[C@@H]1CO)[C@H]5CC(N)=O)[C@@](C)(CC(N)=O)[C@@H]4CCC(N)=O)[C@@](C)(CC(N)=O)[C@@H]3CCC(N)=O)C(C)(C)[C@@H]2CCC(N)=O.[C-]#N.[Co+3] | inconclusive: 26.9 µM |
